Reference: the supplement of paper PMC12067093, “Discovery and optimisation of a covalent ligand for TRIM25 and its application to targeted protein ubiquitination” (Chemical Science, 2025)
This is one part of the list.

Sequences of proteins named here, by UniProt entry; tags and fusion partners are left off. A change or cut given only in a name is not applied to a line headed by its entry.
UniProt Q9BVC4, whole entry, looked up: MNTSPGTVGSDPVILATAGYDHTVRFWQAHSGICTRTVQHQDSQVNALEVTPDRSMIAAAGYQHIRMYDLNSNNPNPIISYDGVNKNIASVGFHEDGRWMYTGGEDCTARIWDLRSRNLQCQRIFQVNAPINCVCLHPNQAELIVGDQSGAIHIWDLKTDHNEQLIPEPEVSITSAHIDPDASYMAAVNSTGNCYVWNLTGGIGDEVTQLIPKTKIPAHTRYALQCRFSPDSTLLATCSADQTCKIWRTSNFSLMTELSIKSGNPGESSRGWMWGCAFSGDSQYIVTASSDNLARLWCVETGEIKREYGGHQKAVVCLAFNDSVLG
UniProt Q9Y3A3: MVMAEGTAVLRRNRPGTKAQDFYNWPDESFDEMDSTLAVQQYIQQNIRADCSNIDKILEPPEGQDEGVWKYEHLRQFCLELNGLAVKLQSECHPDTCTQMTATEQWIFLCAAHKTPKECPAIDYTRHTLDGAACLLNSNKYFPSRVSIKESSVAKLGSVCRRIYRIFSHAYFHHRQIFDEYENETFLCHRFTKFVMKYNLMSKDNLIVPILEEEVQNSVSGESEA
UniProt Q9UBG0: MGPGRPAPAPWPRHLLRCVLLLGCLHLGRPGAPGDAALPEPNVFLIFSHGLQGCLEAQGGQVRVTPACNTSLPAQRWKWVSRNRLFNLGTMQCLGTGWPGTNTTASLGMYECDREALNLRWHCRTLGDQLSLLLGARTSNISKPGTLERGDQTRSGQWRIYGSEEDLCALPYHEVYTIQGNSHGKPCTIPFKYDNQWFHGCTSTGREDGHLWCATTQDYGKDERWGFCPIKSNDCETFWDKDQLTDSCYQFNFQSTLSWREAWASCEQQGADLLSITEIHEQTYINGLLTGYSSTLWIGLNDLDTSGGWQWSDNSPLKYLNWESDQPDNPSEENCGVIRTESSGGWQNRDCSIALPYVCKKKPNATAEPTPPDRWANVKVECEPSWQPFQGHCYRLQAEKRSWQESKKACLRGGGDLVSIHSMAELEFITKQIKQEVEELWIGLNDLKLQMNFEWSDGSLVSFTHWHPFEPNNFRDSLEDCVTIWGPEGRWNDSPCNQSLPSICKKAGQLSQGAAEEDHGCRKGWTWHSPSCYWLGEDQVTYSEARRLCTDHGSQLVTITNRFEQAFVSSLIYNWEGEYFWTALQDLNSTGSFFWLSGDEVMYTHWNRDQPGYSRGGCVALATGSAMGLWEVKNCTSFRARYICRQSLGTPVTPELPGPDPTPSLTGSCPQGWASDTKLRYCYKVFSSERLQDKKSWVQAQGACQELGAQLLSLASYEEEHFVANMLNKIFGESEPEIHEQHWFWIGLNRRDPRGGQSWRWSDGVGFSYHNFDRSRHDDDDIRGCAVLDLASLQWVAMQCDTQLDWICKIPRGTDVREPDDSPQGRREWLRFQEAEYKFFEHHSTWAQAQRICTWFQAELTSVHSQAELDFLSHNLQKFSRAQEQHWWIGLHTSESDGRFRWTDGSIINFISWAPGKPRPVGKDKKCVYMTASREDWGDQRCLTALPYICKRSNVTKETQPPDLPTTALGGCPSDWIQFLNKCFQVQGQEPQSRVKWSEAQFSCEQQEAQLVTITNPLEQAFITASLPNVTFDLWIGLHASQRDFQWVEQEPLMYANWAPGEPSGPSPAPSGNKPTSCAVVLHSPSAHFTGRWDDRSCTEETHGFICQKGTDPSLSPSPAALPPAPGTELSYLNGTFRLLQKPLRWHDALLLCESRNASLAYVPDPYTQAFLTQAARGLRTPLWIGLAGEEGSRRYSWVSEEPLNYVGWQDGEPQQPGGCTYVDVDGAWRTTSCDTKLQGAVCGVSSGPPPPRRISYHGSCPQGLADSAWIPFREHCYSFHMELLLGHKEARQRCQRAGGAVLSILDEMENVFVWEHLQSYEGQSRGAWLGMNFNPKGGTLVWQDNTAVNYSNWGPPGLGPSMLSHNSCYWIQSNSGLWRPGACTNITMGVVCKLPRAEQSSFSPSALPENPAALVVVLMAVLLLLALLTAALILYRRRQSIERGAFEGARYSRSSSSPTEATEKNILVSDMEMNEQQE
UniProt Q14168: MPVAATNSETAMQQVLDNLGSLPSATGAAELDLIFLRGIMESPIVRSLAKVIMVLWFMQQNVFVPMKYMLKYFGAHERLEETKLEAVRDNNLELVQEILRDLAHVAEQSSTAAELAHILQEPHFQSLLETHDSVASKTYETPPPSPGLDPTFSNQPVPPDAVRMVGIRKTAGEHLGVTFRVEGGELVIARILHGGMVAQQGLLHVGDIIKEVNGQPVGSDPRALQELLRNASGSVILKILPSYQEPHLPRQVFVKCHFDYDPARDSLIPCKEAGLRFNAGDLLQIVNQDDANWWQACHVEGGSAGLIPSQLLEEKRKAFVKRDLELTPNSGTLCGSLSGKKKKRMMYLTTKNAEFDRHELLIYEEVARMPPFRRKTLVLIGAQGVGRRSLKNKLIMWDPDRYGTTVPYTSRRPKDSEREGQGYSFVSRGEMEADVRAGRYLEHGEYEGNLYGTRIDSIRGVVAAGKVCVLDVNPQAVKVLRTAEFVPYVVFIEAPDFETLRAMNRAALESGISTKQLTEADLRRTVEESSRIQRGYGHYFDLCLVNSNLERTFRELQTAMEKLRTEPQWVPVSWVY
UniProt Q8TDZ2: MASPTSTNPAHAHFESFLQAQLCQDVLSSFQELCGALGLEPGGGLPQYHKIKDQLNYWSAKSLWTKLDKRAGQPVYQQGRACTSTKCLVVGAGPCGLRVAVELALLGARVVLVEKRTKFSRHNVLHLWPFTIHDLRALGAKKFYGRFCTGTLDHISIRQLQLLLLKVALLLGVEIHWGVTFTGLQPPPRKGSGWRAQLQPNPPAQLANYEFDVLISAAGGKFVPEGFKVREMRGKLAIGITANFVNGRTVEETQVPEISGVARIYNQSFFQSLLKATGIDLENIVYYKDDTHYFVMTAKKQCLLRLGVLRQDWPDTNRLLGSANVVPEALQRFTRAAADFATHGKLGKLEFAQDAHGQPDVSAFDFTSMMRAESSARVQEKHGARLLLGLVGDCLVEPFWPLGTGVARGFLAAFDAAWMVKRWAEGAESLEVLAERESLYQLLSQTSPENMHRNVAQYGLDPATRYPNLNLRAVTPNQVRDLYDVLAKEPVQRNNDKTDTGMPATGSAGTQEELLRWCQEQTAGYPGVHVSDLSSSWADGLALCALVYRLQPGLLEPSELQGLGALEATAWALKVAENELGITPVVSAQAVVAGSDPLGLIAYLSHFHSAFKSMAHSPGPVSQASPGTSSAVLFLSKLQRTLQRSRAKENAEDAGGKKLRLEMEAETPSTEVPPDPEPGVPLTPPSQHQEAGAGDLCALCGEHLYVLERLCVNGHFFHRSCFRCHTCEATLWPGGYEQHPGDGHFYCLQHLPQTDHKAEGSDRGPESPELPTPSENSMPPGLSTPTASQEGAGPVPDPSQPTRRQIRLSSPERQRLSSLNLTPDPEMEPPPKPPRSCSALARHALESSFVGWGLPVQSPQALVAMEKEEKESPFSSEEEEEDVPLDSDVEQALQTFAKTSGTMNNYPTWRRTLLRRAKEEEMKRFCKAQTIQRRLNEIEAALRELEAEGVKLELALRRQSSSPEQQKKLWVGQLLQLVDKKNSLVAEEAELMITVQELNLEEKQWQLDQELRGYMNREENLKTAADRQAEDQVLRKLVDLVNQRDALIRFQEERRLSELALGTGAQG
UniProt P39210: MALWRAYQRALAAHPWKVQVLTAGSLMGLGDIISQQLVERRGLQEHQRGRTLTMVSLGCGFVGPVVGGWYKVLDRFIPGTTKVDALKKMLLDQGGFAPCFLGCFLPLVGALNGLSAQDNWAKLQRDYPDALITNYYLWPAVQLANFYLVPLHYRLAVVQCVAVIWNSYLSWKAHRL
UniProt Q96AX9: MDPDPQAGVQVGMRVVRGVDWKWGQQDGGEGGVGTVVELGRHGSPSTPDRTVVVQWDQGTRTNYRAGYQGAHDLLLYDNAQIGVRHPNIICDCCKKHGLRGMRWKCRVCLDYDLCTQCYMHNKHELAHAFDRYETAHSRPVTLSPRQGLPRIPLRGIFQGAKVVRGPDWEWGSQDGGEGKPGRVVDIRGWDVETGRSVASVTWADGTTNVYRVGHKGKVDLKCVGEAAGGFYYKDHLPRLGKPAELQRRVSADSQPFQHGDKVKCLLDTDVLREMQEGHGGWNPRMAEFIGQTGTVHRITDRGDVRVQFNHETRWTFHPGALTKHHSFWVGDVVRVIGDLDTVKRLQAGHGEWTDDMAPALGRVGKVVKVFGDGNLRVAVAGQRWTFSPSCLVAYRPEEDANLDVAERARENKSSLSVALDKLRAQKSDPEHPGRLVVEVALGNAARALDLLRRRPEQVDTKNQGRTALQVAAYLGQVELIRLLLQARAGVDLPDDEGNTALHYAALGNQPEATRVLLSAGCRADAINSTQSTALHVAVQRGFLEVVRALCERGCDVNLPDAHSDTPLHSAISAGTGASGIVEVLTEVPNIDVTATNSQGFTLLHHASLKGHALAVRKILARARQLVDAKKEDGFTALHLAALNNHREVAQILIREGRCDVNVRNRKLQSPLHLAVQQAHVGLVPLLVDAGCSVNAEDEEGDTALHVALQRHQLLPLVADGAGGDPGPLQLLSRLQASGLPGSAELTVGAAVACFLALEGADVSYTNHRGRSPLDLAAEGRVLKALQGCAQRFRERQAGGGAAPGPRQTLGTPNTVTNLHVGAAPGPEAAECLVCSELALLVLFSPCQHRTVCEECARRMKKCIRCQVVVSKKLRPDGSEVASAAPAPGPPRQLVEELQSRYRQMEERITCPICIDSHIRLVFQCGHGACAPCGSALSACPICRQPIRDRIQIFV
UniProt Q9BU76: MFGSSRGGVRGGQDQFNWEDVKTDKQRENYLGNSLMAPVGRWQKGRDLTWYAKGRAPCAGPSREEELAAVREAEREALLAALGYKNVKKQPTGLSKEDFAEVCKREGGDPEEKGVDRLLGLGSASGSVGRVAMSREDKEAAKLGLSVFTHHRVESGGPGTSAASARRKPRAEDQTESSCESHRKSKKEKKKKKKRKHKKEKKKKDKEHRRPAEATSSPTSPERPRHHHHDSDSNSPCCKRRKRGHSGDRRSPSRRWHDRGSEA
UniProt Q8WV92, whole entry, looked up: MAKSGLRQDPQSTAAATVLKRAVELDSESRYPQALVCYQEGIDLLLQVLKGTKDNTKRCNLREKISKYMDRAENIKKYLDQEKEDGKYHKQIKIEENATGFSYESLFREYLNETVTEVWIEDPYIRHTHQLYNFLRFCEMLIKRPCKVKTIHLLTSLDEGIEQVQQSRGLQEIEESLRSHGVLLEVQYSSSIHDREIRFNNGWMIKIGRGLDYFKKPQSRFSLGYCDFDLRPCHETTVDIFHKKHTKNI
UniProt Q9H3L0: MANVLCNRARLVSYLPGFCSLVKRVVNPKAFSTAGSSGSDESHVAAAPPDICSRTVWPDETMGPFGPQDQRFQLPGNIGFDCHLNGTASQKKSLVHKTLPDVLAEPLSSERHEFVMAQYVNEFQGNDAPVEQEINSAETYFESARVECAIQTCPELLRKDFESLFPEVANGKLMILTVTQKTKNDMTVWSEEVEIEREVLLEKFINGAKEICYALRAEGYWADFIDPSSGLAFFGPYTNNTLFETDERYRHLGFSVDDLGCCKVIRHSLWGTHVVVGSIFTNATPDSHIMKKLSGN
UniProt Q00013: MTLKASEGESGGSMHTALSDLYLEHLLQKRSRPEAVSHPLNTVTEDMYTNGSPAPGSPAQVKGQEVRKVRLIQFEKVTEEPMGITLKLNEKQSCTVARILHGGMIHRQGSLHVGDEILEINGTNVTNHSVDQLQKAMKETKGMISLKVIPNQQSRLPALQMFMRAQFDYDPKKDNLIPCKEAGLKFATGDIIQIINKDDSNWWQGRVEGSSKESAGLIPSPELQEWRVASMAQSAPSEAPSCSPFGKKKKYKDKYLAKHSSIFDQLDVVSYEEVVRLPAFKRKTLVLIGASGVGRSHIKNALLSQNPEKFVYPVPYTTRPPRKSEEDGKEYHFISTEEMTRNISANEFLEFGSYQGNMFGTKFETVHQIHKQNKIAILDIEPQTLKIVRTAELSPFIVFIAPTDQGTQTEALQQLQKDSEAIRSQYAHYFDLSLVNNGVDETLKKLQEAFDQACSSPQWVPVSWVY
UniProt P25325: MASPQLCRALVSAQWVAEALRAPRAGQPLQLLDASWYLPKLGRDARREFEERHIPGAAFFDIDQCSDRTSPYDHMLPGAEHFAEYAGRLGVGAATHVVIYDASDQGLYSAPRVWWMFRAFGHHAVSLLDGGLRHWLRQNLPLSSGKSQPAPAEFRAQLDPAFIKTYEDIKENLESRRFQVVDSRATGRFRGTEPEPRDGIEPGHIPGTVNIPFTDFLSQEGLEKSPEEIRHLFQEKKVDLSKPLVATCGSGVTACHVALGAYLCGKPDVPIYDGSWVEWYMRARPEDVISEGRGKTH

Compound: Cc1cc(ccc1-c1ccccc1)C(=O)N1CCCN(CC1)C(=O)CCl [compound 10]
Assay: probe-labelled cysteine peptide fold change vs DMSO (competition) (log2 fold change); higher = less target engagement (more negative = stronger competition)
Conditions: THP-1, incubation time: 4 h
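Note: competitive profiling in live THP-1 cells: cysteine peptides tagged with an iodoacetamide desthiobiotin (IA-DTB) probe, intensity after compound treatment relative to DMSO-treated cells.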

Target | probe-labelled cysteine peptide fold change (10 µM) | probe-labelled cysteine peptide fold change (50 µM)
MRPL37_Q9BZE1_177_RETYCPVIVDNLIQLCK (UniProt Q9BZE1) | -0.189 | -0.208
MLST8_Q9BVC4_107_WMYTGGEDCTAR (UniProt Q9BVC4) | -0.129 | -0.295
MOB4_Q9Y3A3_97_LQSECHPDTCTQMTATEQWIFLCAAHK (UniProt Q9Y3A3) | -0.00522 | 0.0446
MOB4_Q9Y3A3_188_QIFDEYENETFLCHR (UniProt Q9Y3A3) | 0.126 | 0.217
MRPL45_Q9BRJ2_151_DIFIEAHLCLNNSDHDR (UniProt Q9BRJ2) | -0.476 | -0.107
MRC2_Q9UBG0_201_YDNQWFHGCTSTGR (UniProt Q9UBG0) | -2.14 | -2.04
MPP2_Q14168_543_GYGHYFDLCLVNSNLER (UniProt Q14168) | 0.0793 | 0.22
MICAL1_Q8TDZ2_87+95_CLVVGAGPCGLR (UniProt Q8TDZ2) | -0.00296 | -0.103
MPV17_P39210_59_TLTMVSLGCGFVGPVVGGWYK (UniProt P39210) | -0.126 | 0.177
MIB2_Q96AX9_969_ITCPICIDSHIR (UniProt Q96AX9) | -0.0329 | 0.256
MRPL39_Q9NYK5_133_DCDPGEVNK (UniProt Q9NYK5) | -0.21 | -0.628
MMTAG2_Q9BU76_103_EDFAEVCKR (UniProt Q9BU76) | -0.168 | -0.321
MRPL2_Q5T653_213_AAGTCGVLLR (UniProt Q5T653) | -0.0421 | 0.195
MITD1_Q8WV92_226_FSLGYCDFDLRPCHETTVDIFHK (UniProt Q8WV92) | 0.0984 | 0.0591
MMADHC_Q9H3L0_261+262_HLGFSVDDLGCCK (UniProt Q9H3L0) | -0.412 | -1.16
MPP1_Q00013_242_VASMAQSAPSEAPSCSPFGK (UniProt Q00013) | -0.101 | -0.796
MPST_P25325_65_HIPGAAFFDIDQCSDR (UniProt P25325) | -0.0705 | -0.0542
MRPL27_Q9P0M9_88_CLYALEEGIVR (UniProt Q9P0M9) | 0.11 | 0.0987

In a second layout: entries from further up.
Target,probe-labelled cysteine peptide fold change (10 µM),probe-labelled cysteine peptide fold change (50 µM)
MLST8_Q9BVC4_107_WMYTGGEDCTAR (UniProt Q9BVC4),-0.129,-0.295
MIB2_Q96AX9_969_ITCPICIDSHIR (UniProt Q96AX9),-0.0329,0.256
MRPL39_Q9NYK5_133_DCDPGEVNK (UniProt Q9NYK5),-0.21,-0.628
MMTAG2_Q9BU76_103_EDFAEVCKR (UniProt Q9BU76),-0.168,-0.321
